# Values quoted from earlier work, collected in patent US6911330B1, “Recombinant secoisolariciciresinol dehydrogensase, and methods of use” (Washington State University Research Foundation, priority 1998, dated 2005).
# At least one structure is not confirmed: it was looked up by name or label, or the drawing left a doubt.
# Settings: cited from earlier work
smiles,measurement,value
COc1cc([C@H]2OC[C@H]3[C@@H]2CO[C@@H]3c2cc(OC)c(O[C@@H]3O[C@H](CO)[C@@H](O)[C@H](O)[C@H]3O)c(OC)c2)cc(OC)c1O [syringaresinol β-D-glucoside],effect on cardiovascular activity,enhance cardiovascular activity
